Reference: PubChem BioAssay AID1259295 (Sanger Institute, 2017)

Assay: 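Retest kinome hits one siRNA at a time for drug synthetic lethality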 (secondary deconvolution screen, four single siRNAs per gene)
Cells: human COLO678 colorectal cancer cells
Reagents: single siRNA against human genes
Treatment: anchor drug BYL719 at 1 µM, cetuximab at 5 µg/ml or trametinib at 10 nM, or DMSO vehicle alone
Detection: 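Viability under vehicle relative to control pool 2 (non-targeting), and knockdown synergy with BYL719 1 µM, cetuximab 5 µg/ml or trametinib 10 nM, as replicate means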
Reading the numbers: synergy score with BYL719: higher = stronger combined killing with BYL719; synergy score with cetuximab: higher = stronger combined killing with cetuximab; synergy score with trametinib: higher = stronger combined killing with trametinib; viability, vehicle only: higher = more cells survive
Active means: 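a single siRNA is called active when its synergy score is above 0.10 for at least one of the three drugs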
The whole screen tested 160 reagents; this is a random part of them. Of all reagents, 40 (25%) were called active. 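How the synergy score is calculated is not defined; single-siRNA calls need support from other siRNAs and cell lines.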 A number with no mark means an inactive call. Viability is capped at 1. The record does not give: the amount of reagent, the time to read-out.

target	PubChem SID	synergy score with BYL719	synergy score with cetuximab	synergy score with trametinib	viability, vehicle only (fraction of control)
GRK5	SID56476519	-0.0877	-0.119	-0.0589	1
GRK5	SID56476520	-0.105 (active)	-0.00425	0.186	0.93
GRK5	SID56476521	0.0903 (active)	-0.00109	0.229	1
GRK5	SID56476522	-0.102	0.0769	0.0208	0.939
AK2	SID56477903	-0.0452	-0.0156	-0.0731	0.934
AK2	SID56477904	-0.0473	-0.15	-0.0501	0.885
AK2	SID56477905	-0.0525	-0.119	-0.0654	1
AK2	SID56477906	-0.0047	-0.012	0.0847	0.867
PIM1	SID56476199	-0.00993	-0.0701	0.0721	0.828
PIM1	SID56476200	0.125 (active)	-0.00756	0.086	1
PIM1	SID56476201	0.0925	-0.00973	-0.0589	1
PIM1	SID56476202	0.0561 (active)	-0.0744	0.193	0.865
EPHA6	SID56477259	-0.0877	-0.0963	-0.0481	1
EPHA6	SID56477260	-0.054	0.0322	0.0854	0.64
EPHA6	SID56477261	0.0216	0.0967	0.0578	0.863
EPHA6	SID56477262	-0.104	0.022	-0.0025	0.982
PINK1	SID56476283	-0.221	-0.127	0.0365	0.854
PINK1	SID56476284	-0.111	-0.0792	-0.0612	0.796
PINK1	SID56476285	-0.0843	0.0522	0.0519	0.764
PINK1	SID56476286	-0.16	-0.0565	0.0532	0.841
HUNK	SID56476395	-0.0492	0.0169	0.0283	0.733
HUNK	SID56476396	-0.0844	-0.0265	0.0203	0.716
HUNK	SID56476397	-0.186	-0.179	-0.0485	0.662
HUNK	SID56476398	-0.0257	0.00978	0.084	0.885
PIK3CA	SID56475149	0.0081	-0.0478	-0.0121	0.972
PIK3CA	SID56475150	-0.0826	-0.0768	0.00428	0.794
PIK3CA	SID135611211	0.0941 (active)	-0.0344	0.14	0.82
PIK3CA	SID135611212	-0.0274	-0.0406	0.0513	0.781
CAMK2N1	SID134276917	-0.046	-0.119	-0.0113	1
CAMK2N1	SID134276918	0.298 (active)	-0.0919	0.0535	1
CAMK2N1	SID134276919	0.193 (active)	-0.0253	0.143	0.98
CAMK2N1	SID134276920	0.0341	-0.027	-0.0222	1
BMPR2	SID56477247	-0.0877	0.0357	-0.0654	1
BMPR2	SID56477249	-0.0867	0.0115	-0.0669	0.815
BMPR2	SID56477250	-0.0214	0.00761	-0.035	0.885
BMPR2	SID135611748	-0.0877	-0.119	-0.135	1

12 consecutive reagents already listed, quoted:
target	PubChem SID	synergy score with BYL719	synergy score with cetuximab	synergy score with trametinib	viability, vehicle only (fraction of control)
EPHA6	SID56477261	0.0216	0.0967	0.0578	0.863
EPHA6	SID56477262	-0.104	0.022	-0.0025	0.982
PINK1	SID56476283	-0.221	-0.127	0.0365	0.854
PINK1	SID56476284	-0.111	-0.0792	-0.0612	0.796
PINK1	SID56476285	-0.0843	0.0522	0.0519	0.764
PINK1	SID56476286	-0.16	-0.0565	0.0532	0.841
HUNK	SID56476395	-0.0492	0.0169	0.0283	0.733
HUNK	SID56476396	-0.0844	-0.0265	0.0203	0.716
HUNK	SID56476397	-0.186	-0.179	-0.0485	0.662
HUNK	SID56476398	-0.0257	0.00978	0.084	0.885
PIK3CA	SID56475149	0.0081	-0.0478	-0.0121	0.972
PIK3CA	SID56475150	-0.0826	-0.0768	0.00428	0.794

The list goes on:
target	PubChem SID	synergy score with BYL719	synergy score with cetuximab	synergy score with trametinib	viability, vehicle only (fraction of control)
HSPB8	SID56477019	-0.144	-0.0753	0.056	0.854
HSPB8	SID56477020	-0.112	0.0988	0.0151	0.973
HSPB8	SID56477021	-0.0741	-0.0292	-0.0157	1
HSPB8	SID56477022	-0.0135	0.0963	0.0557	1
MPP3	SID56478207	-0.0877	-0.0725	0.047	1
MPP3	SID56478208	-0.0877	-0.0811	0.0319	1
MPP3	SID56478209	0.0479 (active)	0.0919	0.197	0.958
MPP3	SID56478210	-0.0689	-0.0422	0.0152	0.958
CDKN2D	SID56475683	0.0212	-0.00271	0.053	0.917
CDKN2D	SID56475684	-0.0708	-0.136	0.0479	0.98
CDKN2D	SID56475686	-0.0515	0.035	0.0365	0.982
CDKN2D	SID135611272	-0.0113	0.0931	0.0646	0.967
SYK	SID56475471	-0.0647	0.00997	0.0461	0.664
SYK	SID56475472	-0.168	0.0294	0.0592	0.828
SYK	SID56475473	-0.0539	-0.0847	0.0775	0.787
SYK	SID56475474	-0.086	0.0281	-0.0223	0.976
MAPKAPK2	SID56475927	-0.02	-0.119	-0.0287	1
MAPKAPK2	SID56475928	0.0687 (active)	-0.119	0.24	1
MAPKAPK2	SID56475929	0.0219	-0.0762	0.0463	0.588
MAPKAPK2	SID56475930	0.12 (active)	0.0225	0.0403	0.924
CHD4	SID134247681	-0.124	-0.048	-0.000795	0.697
CHD4	SID134247682	-0.0652	0.074	0.00388	0.818
CHD4	SID134247683	0.0125	0.00286	0.0736	0.943
CHD4	SID134247684	-0.0274	0.0681	0.0326	0.831
MARK3	SID56475931	-0.0484	-0.0069	-0.069	0.898
MARK3	SID56475932	-0.0878	-0.0745	-0.0313	0.902
MARK3	SID56475933	-0.28	-0.164	-0.169	0.779
MARK3	SID56475934	-0.29	-0.233	-0.104	0.779
CSNK2A2	SID56476699	-0.205	-0.0687	0.064	0.872
CSNK2A2	SID56476700	-0.0905 (active)	-0.04	0.141	0.958
CSNK2A2	SID56476701	-0.227	-0.229	-0.0627	0.764
CSNK2A2	SID56476702	-0.0576	0.00582	-0.0285	0.608
IRAK1	SID56476703	0.138 (active)	-0.00415	0.129	0.947
IRAK1	SID56476704	0.135 (active)	-0.0807	0.208	0.98
IRAK1	SID56476705	0.0687 (active)	-0.105	0.136	1
IRAK1	SID56476706	0.298 (active)	-0.119	-0.0524	1
PAK1	SID56475940	-0.126 (active)	-0.102	0.118	0.766
PAK1	SID56475941	-0.00428	-0.0423	0.0372	0.813
PAK1	SID56475942	-0.071	-0.0979	-0.029	0.662
PAK1	SID135611339	-0.0999 (active)	0.0952	0.16	0.967
